Experimental data taken from article PMC7819943, “Rice protein-binding microarrays: a tool to detect cis-acting elements near promoter regions in rice”.
Some of the results follow.

target: T1, OsSMF1 (Oryza sativa, UniProt Q6ZLB0 1-436); test: protein-binding microarray (RPBM); PBS, 2% BSA, 51.3 ng/ul salmon testes DNA, 50 uM zinc acetate, 200 nM TF, 25 C, 1 h; high values mean tight binding; conditions: protein: recombinant; tags: N-terminal polyhistidine and DsRed monomer fusion (pET32a); chain copies: 2; label: CyDye5-dUTP incorporated in the synthesized complementary strand; 3' TTTTT single-stranded linker to array surface; dsDNA, one strand shown
T1 sequence: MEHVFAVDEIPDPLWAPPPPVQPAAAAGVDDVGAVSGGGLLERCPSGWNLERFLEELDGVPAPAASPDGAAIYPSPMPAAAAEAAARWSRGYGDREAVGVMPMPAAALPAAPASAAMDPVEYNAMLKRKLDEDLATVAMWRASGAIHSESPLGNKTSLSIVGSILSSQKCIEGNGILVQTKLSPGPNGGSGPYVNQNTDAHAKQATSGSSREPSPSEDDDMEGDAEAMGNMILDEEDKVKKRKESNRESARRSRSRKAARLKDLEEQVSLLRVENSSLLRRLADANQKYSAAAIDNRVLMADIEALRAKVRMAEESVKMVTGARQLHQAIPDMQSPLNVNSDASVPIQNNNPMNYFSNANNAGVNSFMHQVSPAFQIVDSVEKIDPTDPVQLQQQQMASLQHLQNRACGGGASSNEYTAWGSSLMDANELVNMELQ
Summary of the method: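 Polyhistidine-tagged DsRed fusions of transcription factors, joined at the N-terminus, were expressed in E. coli BL21-CodonPlus and isolated on Ni–NTA. They were incubated at 200 nM for 1 h at 25 °C on a custom Agilent array, double-stranded and BSA-blocked, in PBS with 2% BSA, salmon testes DNA and 50 µM zinc acetate. The binding signal is per-feature fluorescence intensity (arbitrary units) read on an Axon 4000B scanner after washing.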

| Sequence | binding signal |
| --- | --- |
| AACGACTCGCCCTTGCGATTTTGCGAATGATAAACGAACGCGGAGTCACCTAGTGCAG | 24800 fluorescence intensity (a.u.) |
| TGCGAGATAAATCTTTTAAGCCTGATTGCGTGTTGATTTGCGGAGTCACCTAGTGCAG | 4310 fluorescence intensity (a.u.) |
| GCGCTCGCACGTGGGCACGTGGCTAGGCTTGGCTTCGCTTCGGAGTCACCTAGTGCAG | 5600 fluorescence intensity (a.u.) |
| AGGAGGAAGAAGAGGAAGGTGAGAATGACACGTGGGTCCCCGGAGTCACCTAGTGCAG | 11900 fluorescence intensity (a.u.) |
| AGTTTATTATATATTATAGATGATGCATATTCAGGTCGGACGGAGTCACCTAGTGCAG | 3610 fluorescence intensity (a.u.) |
| TAATTCAGCTTAATAAATTCGTCCAGCTGTTTACTGACTGCGGAGTCACCTAGTGCAG | 52800 fluorescence intensity (a.u.) |
| AACTTTGTTGTTGATGACGTTTTCAGTTGAAGTCGTTCACCGGAGTCACCTAGTGCAG | 7120 fluorescence intensity (a.u.) |
| CGGGCTTGTGAAGACCTTCACCTCTGACGGGCCACCATCACGGAGTCACCTAGTGCAG | 3260 fluorescence intensity (a.u.) |
| AAACGGAGGTCGTAGGACTGAATCTACTCACATGGGCACACGGAGTCACCTAGTGCAG | 3870 fluorescence intensity (a.u.) |
| GAGTTTGGCACTTCGAAAGGCAAGAGTCTGTCCACGTCGGCGGAGTCACCTAGTGCAG | 10600 fluorescence intensity (a.u.) |
| TGGGTTCGAATCATTTGTGTGCCACAGTGTTACATTCGGGCGGAGTCACCTAGTGCAG | 3160 fluorescence intensity (a.u.) |
| GTCTCGACACTGACTGTGATGCTTTGCATCGTCATTTGTCCGGAGTCACCTAGTGCAG | 3910 fluorescence intensity (a.u.) |
| AAGGTCGCCAGCCAGGTGTGACGCGTTCGGGGCCCCGCACCGGAGTCACCTAGTGCAG | 6570 fluorescence intensity (a.u.) |
| GCTTCTTCTACTTATTAATCCTTCGTCACTATCGATCGGACGGAGTCACCTAGTGCAG | 3440 fluorescence intensity (a.u.) |
| TAATCACCCTATTAACCTGCATTTCTCATCTACCCCTTCACGGAGTCACCTAGTGCAG | 3910 fluorescence intensity (a.u.) |
| CATGTTTGTCGTGTGGCCAGGACGTGAAGTCCTCGTCACCCGGAGTCACCTAGTGCAG | 5340 fluorescence intensity (a.u.) |
| TACCATGTATATCTTGTTGCATAAATAGATCTTGTCATCACGGAGTCACCTAGTGCAG | 4330 fluorescence intensity (a.u.) |
| TCCCGTGCAGCCGTGGCAGCCGCGCGCTGCTCGAGTCCGGCGGAGTCACCTAGTGCAG | 4470 fluorescence intensity (a.u.) |
| CACGTAGCCGTCATGTCAGCGAAACCACCCTCTAAAACTCCGGAGTCACCTAGTGCAG | 3220 fluorescence intensity (a.u.) |
| TCTACACACAGCCACGTTGAGGGGCTGGTGAGCGCGCGCTCGGAGTCACCTAGTGCAG | 14100 fluorescence intensity (a.u.) |
| GATGGTCACGCGTGGACGTCAGCTTGGGAGCGAATCCGTTCGGAGTCACCTAGTGCAG | 5170 fluorescence intensity (a.u.) |

A section of the results above:

| Sequence | binding signal |
| --- | --- |
| TAATTCAGCTTAATAAATTCGTCCAGCTGTTTACTGACTGCGGAGTCACCTAGTGCAG | 52800 fluorescence intensity (a.u.) |
| AACTTTGTTGTTGATGACGTTTTCAGTTGAAGTCGTTCACCGGAGTCACCTAGTGCAG | 7120 fluorescence intensity (a.u.) |
| CGGGCTTGTGAAGACCTTCACCTCTGACGGGCCACCATCACGGAGTCACCTAGTGCAG | 3260 fluorescence intensity (a.u.) |
| AAACGGAGGTCGTAGGACTGAATCTACTCACATGGGCACACGGAGTCACCTAGTGCAG | 3870 fluorescence intensity (a.u.) |
| GAGTTTGGCACTTCGAAAGGCAAGAGTCTGTCCACGTCGGCGGAGTCACCTAGTGCAG | 10600 fluorescence intensity (a.u.) |
| TGGGTTCGAATCATTTGTGTGCCACAGTGTTACATTCGGGCGGAGTCACCTAGTGCAG | 3160 fluorescence intensity (a.u.) |
| GTCTCGACACTGACTGTGATGCTTTGCATCGTCATTTGTCCGGAGTCACCTAGTGCAG | 3910 fluorescence intensity (a.u.) |
| AAGGTCGCCAGCCAGGTGTGACGCGTTCGGGGCCCCGCACCGGAGTCACCTAGTGCAG | 6570 fluorescence intensity (a.u.) |
| GCTTCTTCTACTTATTAATCCTTCGTCACTATCGATCGGACGGAGTCACCTAGTGCAG | 3440 fluorescence intensity (a.u.) |
| TAATCACCCTATTAACCTGCATTTCTCATCTACCCCTTCACGGAGTCACCTAGTGCAG | 3910 fluorescence intensity (a.u.) |

Carrying on:

| Sequence | binding signal |
| --- | --- |
| GCCAAAGGTTGGTAATGCCCATGCTCAATTTGACACAATTCGGAGTCACCTAGTGCAG | 30400 fluorescence intensity (a.u.) |
| GAATTGTGTCGGCGACTCGGCGTCACGGCCGCACTGCTTTCGGAGTCACCTAGTGCAG | 3290 fluorescence intensity (a.u.) |
| AGACACACATGCCACCGGAAAGGGTTCTTTTGTTGTTGCTCGGAGTCACCTAGTGCAG | 3220 fluorescence intensity (a.u.) |
| CGGCCCATAGCTCGTCGCGTCACGCCGACCGTTTGGTTCGCGGAGTCACCTAGTGCAG | 7480 fluorescence intensity (a.u.) |
| GCGCCGCCTTCCGCCGCATCGTCACCAGCCGCTCCTTCCTCGGAGTCACCTAGTGCAG | 3860 fluorescence intensity (a.u.) |
| TTTGTCCTGCGTGACGGCTGAGTCAGCATAGACCCACGTGCGGAGTCACCTAGTGCAG | 29800 fluorescence intensity (a.u.) |
| AGAGAGAGGGACGAAAGAAAGAAGAGAGGAGGCAATGACACGGAGTCACCTAGTGCAG | 29900 fluorescence intensity (a.u.) |
| GCCACAAGTCCGCAATAAACCACCACACACCACGTACCGGCGGAGTCACCTAGTGCAG | 3700 fluorescence intensity (a.u.) |
| CGGCGCTGGGACCTGGCGGCGTGGTGGCCCTGCGCGGGAGCGGAGTCACCTAGTGCAG | 27800 fluorescence intensity (a.u.) |
| AGGGCGCTCGGCTCGGCGCGGCTCACGCGCACGGGTGCGCCGGAGTCACCTAGTGCAG | 3550 fluorescence intensity (a.u.) |
| GCATTCAGTATAACTTTCTAATACAATACCTATTGCCATTCGGAGTCACCTAGTGCAG | 22400 fluorescence intensity (a.u.) |
| CATTAATTCCATCATTGGCTTTGTGCCCATGTTTGTATGCCGGAGTCACCTAGTGCAG | 7620 fluorescence intensity (a.u.) |
| GTATTCAAATACCGTATATCATAACTTCATAAGAGAACAGCGGAGTCACCTAGTGCAG | 29300 fluorescence intensity (a.u.) |
| CCCAATGAGGTGTGCAGCGTAGTTTGGACTTTTCATTTGGCGGAGTCACCTAGTGCAG | 3370 fluorescence intensity (a.u.) |
| TTGGTACTATACCTGTAGTTTTGACATATATTTGCTACTTCGGAGTCACCTAGTGCAG | 3140 fluorescence intensity (a.u.) |
| TAAAGTAGTTTTACACGTAAATCAGATGCTGACGTCAGCGCGGAGTCACCTAGTGCAG | 48600 fluorescence intensity (a.u.) |
| GTGCGGATGGGGAGGTGTGGTGGAAGGGTGGACAGTGGAGCGGAGTCACCTAGTGCAG | 3410 fluorescence intensity (a.u.) |
| TAAGTTTCCGTTTTGGATCTTGCGTGGGTGCGAGGAATCGCGGAGTCACCTAGTGCAG | 3430 fluorescence intensity (a.u.) |
| AAACTGCACGTGGACCTGAAGCATTTTCTCCTTCGTTTACCGGAGTCACCTAGTGCAG | 4610 fluorescence intensity (a.u.) |
| AAGGGAATCAGAGGAAGCAGTAATGACTAATGACCAATGTCGGAGTCACCTAGTGCAG | 3560 fluorescence intensity (a.u.) |
| GTTTGATTAGGGTAGATAGAGAGAGAGGGGTTGGGTTTGGCGGAGTCACCTAGTGCAG | 3390 fluorescence intensity (a.u.) |
